Test results as given in the supplement of paper PMC12823440, “Inhibitors supercharge kinase turnover through native proteolytic circuits” (Nature, 2025).
Some of the results follow. Hit calls seldom repeat between salt and free forms of one compound.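 Kinases, fused to nanoluciferase, were expressed in K562 cells; luminescence was measured every 4 h from 2 to 18 h as percent of control (DMSO = 100%, positive control = 0%). A time point is decreased if signal falls significantly (2 sigma). Hits were called by the authors by a rule that is not shown; the count of time points alone does not decide it.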

Amino acid sequences for entries named in this document (tags omitted).
UniProt P53350, whole entry: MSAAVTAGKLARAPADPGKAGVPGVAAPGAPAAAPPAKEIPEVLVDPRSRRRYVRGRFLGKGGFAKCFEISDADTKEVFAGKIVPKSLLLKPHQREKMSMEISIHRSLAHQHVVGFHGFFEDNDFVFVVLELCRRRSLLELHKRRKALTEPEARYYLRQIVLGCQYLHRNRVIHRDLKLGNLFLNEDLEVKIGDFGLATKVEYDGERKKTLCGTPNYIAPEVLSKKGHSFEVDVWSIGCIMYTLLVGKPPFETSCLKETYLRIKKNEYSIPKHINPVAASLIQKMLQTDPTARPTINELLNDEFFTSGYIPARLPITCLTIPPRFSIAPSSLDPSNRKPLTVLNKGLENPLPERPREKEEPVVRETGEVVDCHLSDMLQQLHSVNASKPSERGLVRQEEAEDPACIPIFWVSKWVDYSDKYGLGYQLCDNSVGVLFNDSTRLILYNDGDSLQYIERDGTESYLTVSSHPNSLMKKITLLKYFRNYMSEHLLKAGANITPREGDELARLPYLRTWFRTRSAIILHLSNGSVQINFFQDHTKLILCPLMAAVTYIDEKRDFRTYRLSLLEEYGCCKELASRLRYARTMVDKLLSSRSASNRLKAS

target: PLK1 (UniProt P53350); assay: kinase-Nluc reporter destabilization hit call (1 = scored as downregulated) (binary); higher = compound decreases kinase abundance; conditions: K562; 2-18 h

Structure (SMILES) | kinase-Nluc reporter destabilization hit call
COc1cc2nccc(Oc3ccc(NC(=O)Nc4ccc(F)cc4F)c(F)c3)c2cc1OC (10 µM) | inactive: 0
N#C/C(=C\c1ccc[nH]1)c1ccc(Cl)c(Cl)c1 (2.5 µM) | inactive: 0
O=c1cc(-c2ccc(O)cc2)oc2cc(O)c(O)c(O)c12 [Scutellarein] (10 µM) | inactive: 0
CC(C)n1nc(C#Cc2ccccc2)c2c(N)ncnc21 (10 µM) | inactive: 0
O=C(N=c1sccn1Cc1ccccc1)c1c[nH]c2ncccc12 (10 µM) | inactive: 0
CC(C)=C/C=C1\O[C@@H]2CC(C)=CC(=O)[C@@H]2[C@]1(C)O [Bisabolangelone] (10 µM) | inactive: 0
COc1ccc(C2CC(c3ccc(Cl)cc3)=NN2c2nc(-c3ccncc3)cs2)cc1 (stereo not drawn) [mTOR inhibitor-8] (10 µM) | inactive: 0
Cc1cc(F)c(Nc2ncnc3cc(OCc4ccccc4)ccc23)cc1O (10 µM) | inactive: 0
CNCCOc1ccccc1C(C)(C)Nc1nccn(-c2cc(C(=O)NC3CC3)ccc2C)c1=O [p38α inhibitor 2] (10 µM) | inactive: 0
CCn1c(-c2nonc2N)nc2c(C#CCO)ncc(OCCCN)c21 [AKT Kinase Inhibitor] (10 µM) | inactive: 0
NC(=O)c1nc(-c2c(F)cccc2Cl)oc1Nc1ccc(C(=O)N2CCOCC2)cc1 (10 µM) | inactive: 0
O=C(NCc1cccc(O)c1)c1cc2cc(F)ccc2[nH]1 (10 µM) | inactive: 0
Cc1nc(Nc2ncc(C(=O)Nc3c(C)cccc3Cl)s2)cc(N2CCN(C(=O)CCCCCCC(=O)N[C@H](C(=O)N3C[C@H](O)C[C@H]3C(=O)NCc3ccc(-c4scnc4C)cc3)C(C)(C)C)CC2)n1 (2.5 µM) | inactive: 0

Three compounds already listed, sorted by length of the SMILES, smallest number first.
Structure (SMILES) | kinase-Nluc reporter destabilization hit call
O=c1cc(-c2ccc(O)cc2)oc2cc(O)c(O)c(O)c12 [Scutellarein] (10 µM) | inactive: 0
COc1ccc(C2CC(c3ccc(Cl)cc3)=NN2c2nc(-c3ccncc3)cs2)cc1 (stereo not drawn) [mTOR inhibitor-8] (10 µM) | inactive: 0
Cc1nc(Nc2ncc(C(=O)Nc3c(C)cccc3Cl)s2)cc(N2CCN(C(=O)CCCCCCC(=O)N[C@H](C(=O)N3C[C@H](O)C[C@H]3C(=O)NCc3ccc(-c4scnc4C)cc3)C(C)(C)C)CC2)n1 (2.5 µM) | inactive: 0
